Measured values reported in PubChem BioAssay (EPA / NIEHS).
Where “and” joins values, the source holds several entries; their conditions need not be identical. Equal entries are not always repeated. This list was built around the results that the source calls inconclusive (neither active nor inactive); the mix of calls is not that of the screen. Potencies beside an inconclusive call are fits to weak or partial responses and may not hold up. Calls of active or inactive are those of the source. The calls were made as follows: active = hit-call score of the fitted dose curve at least 0.9, where 1 is the maximum; inconclusive = response in the unintended direction; inactive = score below 0.9.

Amino acid sequences for entries named in this document (tags omitted). A change or cut given only in a name is not applied to a line headed by its entry.
UniProt P41235: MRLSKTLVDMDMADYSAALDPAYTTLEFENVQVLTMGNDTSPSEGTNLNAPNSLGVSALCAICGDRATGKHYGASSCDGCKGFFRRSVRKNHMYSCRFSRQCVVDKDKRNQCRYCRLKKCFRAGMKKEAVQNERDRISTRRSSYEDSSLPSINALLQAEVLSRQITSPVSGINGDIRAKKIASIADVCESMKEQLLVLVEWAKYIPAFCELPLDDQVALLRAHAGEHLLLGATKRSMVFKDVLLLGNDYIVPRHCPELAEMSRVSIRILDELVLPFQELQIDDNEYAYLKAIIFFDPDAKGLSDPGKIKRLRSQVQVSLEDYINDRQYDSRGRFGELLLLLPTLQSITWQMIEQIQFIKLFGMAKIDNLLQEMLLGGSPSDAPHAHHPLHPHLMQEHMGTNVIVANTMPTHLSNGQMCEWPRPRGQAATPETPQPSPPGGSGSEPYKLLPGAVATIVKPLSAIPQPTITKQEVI

target: Hepatocyte nuclear factor 4-alpha (Homo sapiens) (UniProt P41235); test: ATG_HNF4a_TRANS: Attagene TRANS-FACTORIAL HepG2 Assay for human Hepatocyte Nuclear Factor 4 alpha (HNF4a) (AID 2282982); details: HepG2 HNF4a transactivation reporter, mRNA readout
Protocol: ATG_TRANS is a cell-based, multiplexed-readout assay that uses HepG2, a human liver cell line, with measurements taken at 24 hours after chemical dosing in a 24-well plate.ATG_HNF4a_TRANS is one of 30 assay component(s) measured or calculated from the ATG_TRANS assay. It is designed to make measurements of mRNA induction, a form of inducible reporter, as detected with fluorescence intensity signals by Reverse transcription polymerase chain reaction (RT-PCR) and Capillary electrophoresis technology.Data from the assay component ATG_HNF4a_TRANS was analyzed into 1 assay endpoint. This assay endpoint, ATG_HNF4a_TRANS, was analyzed in the positive analysis fitting direction relative to DMSO as the negative control and baseline of activity. Using a type of inducible reporter, measures of mRNA for gain-of-signal activity can be used to understand the reporter gene at the transcription factor-level as they relate to the gene HNF4A. Furthermore, this assay endpoint can be referred to as a primary readout, because this assay has produced multiple assay endpoints where this one serves a reporter gene function. To generalize the intended target to other relatable targets, this assay endpoint is annotated to the nuclear receptor intended target family, where the subfamily is orphan.
Human liver HepG2 cells are transiently transfected with multiple reporter transcription units (MRTUs) in 6-well plates using FuGene 6 reagent (Roche; 3 ml FuGene/1 mg DNA). The MRTU constructs are regulated by a cis-regulating element (promoter). […] A major difference between the CIS and TRANS system is that in CIS activities of endogenous TFs are measured, whereas the TRANS assay evaluates changes in activities of exogenous, chimeric NR-Gal4 proteins. […] At the end of 24 hour incubation, total RNA was isolated using TriZol reagent (Invitrogen). The isolated RNA is then reverse-transcribed using oligo(dT) primer and Mo-MLV reverse transcriptase (Invitrogen) with DNAse I (Ambion) treatment for 30 min. The one-tenth of the produced cDNA was amplified by PCR using Taq DNA polymerase (Invitrogen) and two reporter sequence-specific primers. The PCR products were fluorescently labeled by primer extension with 6-arboxyfluorescein (6-FAM) 5'-labeled reporter sequence-specific primer (2 min at 95 C, 20 s at 68 C and 10 min at 72 C) and these products were digested with 5U of HpaI (New England Biolabs) for 2h at 37 C. The fragments were purified using Qiaquick PCR columns (Qiagen), analyzed on an ABI 3130xL genetic analyzer (Applied Biosystems) with peak positions identified by using a set of X-rhodamine (ROX)-labeled MapMarker1000 molecular weight standards (BioVentures). The raw capillary electrophoresis data was processed using Attagraph software (Attagene).

SMILES | AC50 | outcome
C[C@]12CC[C@@H]3c4ccc(O)cc4CC[C@H]3[C@@H]1C[C@@H](O)[C@@H]2O | inconclusive: 0.00305 µM | inactive
CC(=O)OCc1ccccc1 | – | inactive
CC(C)CC(=O)CC(C)C | inconclusive: 23.5 µM | –
[Co] | inconclusive: 50 µM | –
CCCCCCCCSCc1cc(C)c(O)c(CSCCCCCCCC)c1 | – | inactive
OCCOCCOCCOCCOCCO | inconclusive: 183 µM | –
O=S(=O)(O)c1cccc2c(S(=O)(=O)O)cccc12 | inconclusive: 100 µM | –
CC(C)(C)c1ccc(OC2CCCCC2O)cc1 (stereo not given) | inconclusive: 0.0823 µM | –
CC/C=C\CCO | – | inactive
CCCC(=O)OC(C)(C)Cc1ccccc1 | – | inactive
CCCCCCCC=O | – | inactive
FC(OC(F)(F)C(F)(F)C(F)(F)F)C(F)(F)F (stereo not given) | inconclusive: 100 µM | –
C=COCCOCCOCCOC=C | – | inactive
CCCCCCCCOC(=O)CCCCCCCCC(=O)OCCCCCCCC | inconclusive: 100 µM | –

SMILES | AC50 | outcome
O=C(O)c1cc(Cl)cc(Cl)c1O | – | inactive
CC(C)=CCC[C@](C)(O)[C@@H]1CC=C(C)CC1 | inconclusive: 17.7 µM | –
Cc1ccccc1C(OCCN(C)C)c1ccccc1 (stereo not given) | inconclusive: 17.9 µM and inconclusive: 100 µM | –
C1=CCCC=CCCC=CCC1 | inconclusive: 61.9 µM | –
CC1CCCCC1 | inconclusive: 100 µM | –
CCC(C)CCCC(C)(C)O (stereo not given) | inconclusive: 100 µM | –
CCCCCC[C@@H](O)C/C=C\CCCCCCCC(=O)OCC(O)CO (stereo not given in full) | – | inactive
CN1CCCC1=O | inconclusive: 100 µM | –
COc1ccc(OC)c(N=Nc2c(O)ccc3ccccc23)c1 | – | inactive
CC(C=O)c1ccccc1 (stereo not given) | – | inactive
NC(=O)C1CO1 (stereo not given) | – | inactive
ON=C1CCCCC1 | inconclusive: 0.244 µM | –
CCCCC[C@H](O)CC(=O)CCc1ccc(O)c(OC)c1 | inconclusive: 42.6 µM | –
CCCCCCCCN(C)C | inconclusive: 100 µM | –
CCCCCCCCCCCCCCCCCC[N+](C)(C)Cc1ccccc1 | active: 50 µM | –
O=C(c1ccccc1)C(O)c1ccccc1 (stereo not given) | inconclusive: 0.0913 µM | –

Copied from the list.
CC/C=C\CCO | outcome: inactive
CC(C)(C)c1ccc(OC2CCCCC2O)cc1 (stereo not given) | AC50: inconclusive: 0.0823 µM
